# Drug screen on melanoma cell lines: apoptosis marker

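Human melanoma cell lines in 1,536-well plates were treated with a pair of drugs for 72 h, then fixed, stained and imaged. Values are the share of nuclei positive for cleaved PARP as a percentage of the same share in the DMSO control: 100 is the control level, higher means more apoptosis. Concentrations were fixed for each drug; these are the higher of two levels. These are primary screening values without error estimates. Basal and induced levels differ widely between cell lines.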
An unselected part of the screen is shown.
An entry leaves out what has no value listed here.
A dash means that no value is listed here.

Every entry is a combination with sorafenib at 2000 nM: CNC(=O)c1cc(Oc2ccc(NC(=O)Nc3ccc(Cl)c(C(F)(F)F)c3)cc2)ccn1

Drugs:
L-779450: Oc1cc(-c2nc(-c3ccccc3)[nH]c2-c2ccncc2)ccc1Cl at 1000 nM
BMS-536924: Cc1cc(N2CCOCC2)cc2[nH]c(-c3c(NC[C@@H](O)c4cccc(Cl)c4)cc[nH]c3=O)nc12 at 1000 nM
sunitinib: CCN(CC)CCNC(=O)c1c(C)[nH]c(/C=C2\C(=O)Nc3ccc(F)cc32)c1C at 2000 nM
bortezomib: CC(C)C[C@H](NC(=O)[C@H](Cc1ccccc1)NC(=O)c1cnccn1)B(O)O at 5 nM
etoposide: COc1cc([C@@H]2c3cc4c(cc3[C@@H](O[C@@H]3O[C@@H]5CO[C@@H](C)O[C@H]5[C@H](O)[C@H]3O)[C@H]3COC(=O)[C@H]23)OCO4)cc(OC)c1O at 100 nM
LFM-A13: C/C(O)=C(\C#N)C(=O)Nc1cc(Br)ccc1Br at 10000 nM
ruxolitinib: N#CC[C@H](C1CCCC1)n1cc(-c2ncnc3[nH]ccc23)cn1 at 5000 nM

Cell line	BMS-536924	ruxolitinib	L-779450	sunitinib	bortezomib	LFM-A13	etoposide
A101D	34.0	41.7	71.2	104	915	166	64.8
SK-MEL-30	37.8	52.1	145	50.9	426	63.4	96.9
RVH-421	55.6	46.3	183	157	1560	95.5	110
A2058	115	89.5	95.6	178	2240	171	128
A375	-	21.1	227	89.4	45.5	90.0	93.4
SK-MEL-5	145	151	150	209	1540	217	62.8
COLO 829	51.4	117	69.0	142	5400	87.3	55.8
C32	470	54.6	94.1	73.9	1670	96.2	33.4
LOX IMVI	141	79.2	149	123	80.3	105	183
UACC-62	112	92.9	414	121	216	120	174
COLO 792	90.6	153	57.6	83.1	263	138	138
WM3619	104	193	114	128	1820	86.3	136
MEL-HO	46.3	126	85.2	108	403	169	67.8
501mel	-	-	159	-	-	26.5	-
WM115	98.7	29.4	162	130	3480	118	133
COLO 800	300	40.7	163	133	66.7	148	52.1
WM451Lu	142	174	703	227	274	237	68.1
IST-MEL1	36.5	65.9	297	51.6	387	274	207
WM3526	209	71.6	223	148	3160	47.4	42.7
IPC-298	76.8	23.1	53.6	168	3690	120	48.8
MeWo	138	138	80.0	105	3400	81.2	93.5
RPMI-7951	90.0	79.6	119	213	2730	125	151
SK-MEL-2	229	109	383	248	104	67.1	202
SK-MEL-28	27.3	68.3	198	83.6	404	270	31.0
G-361	142	133	376	84.1	5770	157	53.3
WM1745	296	82.6	-	1230	388	-	105
LB2518-MEL	99.0	74.6	111	114	1610	29.7	190
MZ2-MEL	382	81.4	71.5	174	38700	104	208
WM1716	114	99.9	70.9	64.3	23100	48.6	46.5
UACC-257	166	85.9	73.6	91.4	124	64.2	110

Once more, the final 4:

- LB2518-MEL : BMS-536924: 99.0; ruxolitinib: 74.6; L-779450: 111; sunitinib: 114; bortezomib: 1610; LFM-A13: 29.7; etoposide: 190
- MZ2-MEL : BMS-536924: 382; ruxolitinib: 81.4; L-779450: 71.5; sunitinib: 174; bortezomib: 38700; LFM-A13: 104; etoposide: 208
- WM1716 : BMS-536924: 114; ruxolitinib: 99.9; L-779450: 70.9; sunitinib: 64.3; bortezomib: 23100; LFM-A13: 48.6; etoposide: 46.5
- UACC-257 : BMS-536924: 166; ruxolitinib: 85.9; L-779450: 73.6; sunitinib: 91.4; bortezomib: 124; LFM-A13: 64.2; etoposide: 110

Values as published with doi:10.1371/journal.pone.0140310, rounded.